Columns and labels:
Assay in all cases: minimum inhibitory concentration
linezolid = compound: CC(=O)NC[C@H]1CN(c2ccc(N3CCOCC3)c(F)c2)C(=O)O1 [linezolid]
clindamycin = compound: CCC[C@@H]1C[C@@H](C(=O)N[C@@H]([C@H]2O[C@H](SC)[C@H](O)[C@@H](O)[C@H]2O)[C@H](C)Cl)N(C)C1 [clindamycin]
fidaxomicin = compound: CCc1c(Cl)c(O)c(Cl)c(O)c1C(=O)O[C@H]1[C@H](O)[C@H](OC)[C@H](OC/C2=C\C=C\C[C@H](O)/C(C)=C/[C@H](CC)[C@@H](O[C@@H]3OC(C)(C)[C@@H](OC(=O)C(C)C)[C@H](O)[C@@H]3O)/C(C)=C/C(C)=C/C[C@@H]([C@@H](C)O)OC2=O)O[C@@H]1C [fidaxomicin]
tigecycline = compound: CN(C)c1cc(NC(=O)CNC(C)(C)C)c(O)c2c1C[C@H]1C[C@H]3[C@H](N(C)C)C(O)=C(C(N)=O)C(=O)[C@@]3(O)C(O)=C1C2=O [tigecycline]
vancomycin = compound: CN[C@H](CC(C)C)C(=O)N[C@H]1C(=O)N[C@@H](CC(N)=O)C(=O)N[C@H]2C(=O)N[C@H]3C(=O)N[C@H](C(=O)N[C@H](C(=O)O)c4cc(O)cc(O)c4-c4cc3ccc4O)[C@H](O)c3ccc(c(Cl)c3)Oc3cc2cc(c3O[C@@H]2O[C@H](CO)[C@@H](O)[C@H](O)[C@H]2O[C@H]2C[C@](C)(N)[C@H](O)[C@H](C)O2)Oc2ccc(cc2Cl)[C@H]1O [vancomycin]
rifampicin = compound: CO[C@H]1/C=C/O[C@@]2(C)Oc3c(C)c(O)c4c(O)c(c(/C=N/N5CCN(C)CC5)c(O)c4c3C2=O)NC(=O)/C(C)=C\C=C\[C@H](C)[C@H](O)[C@@H](C)[C@@H](O)[C@@H](C)[C@H](OC(C)=O)[C@@H]1C [rifampicin]
imipenem = compound: C[C@@H](O)[C@H]1C(=O)N2C(C(=O)O)=C(SCCNC=N)C[C@H]12 [imipenem]
meropenem = compound: C[C@@H](O)[C@H]1C(=O)N2C(C(=O)O)=C(S[C@@H]3CN[C@H](C(=O)N(C)C)C3)[C@H](C)[C@H]12 [meropenem]
metronidazole = compound: Cc1ncc([N+](=O)[O-])n1CCO [metronidazole]

| Test System | minimum inhibitory concentration (linezolid) | minimum inhibitory concentration (clindamycin) | minimum inhibitory concentration (fidaxomicin) | minimum inhibitory concentration (tigecycline) | minimum inhibitory concentration (vancomycin) | minimum inhibitory concentration (rifampicin) | minimum inhibitory concentration (imipenem) | minimum inhibitory concentration (meropenem) | minimum inhibitory concentration (metronidazole) |
| --- | --- | --- | --- | --- | --- | --- | --- | --- | --- |
| Clostridioides difficile PCR ribotype 013 isolate #297 (European region: West, country: Netherlands, isolate source: Animal, ribotype: 013) | 2 µg/mL | 16 µg/mL | 0.008 µg/mL | < 0.03 µg/mL | 0.5 µg/mL | < 0.001 µg/mL | 0.5 µg/mL | 4 µg/mL | < 0.125 µg/mL |
| Clostridioides difficile PCR ribotype 013 isolate #298 (European region: West, country: France, isolate source: Animal, ribotype: 013) | 2 µg/mL | 16 µg/mL | 0.004 µg/mL | < 0.03 µg/mL | 1 µg/mL | < 0.001 µg/mL | 1 µg/mL | 4 µg/mL | < 0.125 µg/mL |
| Clostridioides difficile PCR ribotype 014 isolate #64 (European region: East, country: Poland, isolate source: Human, ribotype: 014) | 2 µg/mL | 16 µg/mL | 0.03 µg/mL | < 0.03 µg/mL | 0.5 µg/mL | < 0.001 µg/mL | 2 µg/mL | 4 µg/mL | 0.25 µg/mL |
| Clostridioides difficile PCR ribotype 014 isolate #65 (European region: West, country: France, isolate source: Human, ribotype: 014) | 2 µg/mL | 8 µg/mL | 0.015 µg/mL | < 0.03 µg/mL | 0.5 µg/mL | < 0.001 µg/mL | 2 µg/mL | 2 µg/mL | < 0.125 µg/mL |
| Clostridioides difficile PCR ribotype 014 isolate #66 (European region: North, country: UK, isolate source: Human, ribotype: 014) | 2 µg/mL | 8 µg/mL | 0.125 µg/mL | < 0.03 µg/mL | 0.5 µg/mL | < 0.001 µg/mL | 2 µg/mL | 4 µg/mL | 0.25 µg/mL |
| Clostridioides difficile PCR ribotype 014 isolate #67 (European region: North, country: UK, isolate source: Human, ribotype: 014) | 2 µg/mL | 8 µg/mL | 0.06 µg/mL | 0.06 µg/mL | 0.5 µg/mL | < 0.001 µg/mL | 4 µg/mL | 2 µg/mL | 0.25 µg/mL |
| Clostridioides difficile PCR ribotype 014 isolate #68 (European region: North, country: UK, isolate source: Human, ribotype: 014) | 2 µg/mL | 8 µg/mL | 0.03 µg/mL | 0.06 µg/mL | 0.5 µg/mL | < 0.001 µg/mL | 2 µg/mL | 4 µg/mL | < 0.125 µg/mL |
| Clostridioides difficile PCR ribotype 014 isolate #70 (European region: North, country: UK, isolate source: Human, ribotype: 014) | 2 µg/mL | 16 µg/mL | 0.03 µg/mL | 0.06 µg/mL | 0.5 µg/mL | < 0.001 µg/mL | 2 µg/mL | 2 µg/mL | < 0.125 µg/mL |
| Clostridioides difficile PCR ribotype 014 isolate #71 (European region: West, country: Netherlands, isolate source: Human, ribotype: 014) | 2 µg/mL | 8 µg/mL | 0.03 µg/mL | < 0.03 µg/mL | 0.5 µg/mL | < 0.001 µg/mL | 1 µg/mL | 2 µg/mL | 0.25 µg/mL |
| Clostridioides difficile PCR ribotype 014 isolate #73 (European region: East, country: Poland, isolate source: Human, ribotype: 014) | 2 µg/mL | 8 µg/mL | 0.004 µg/mL | < 0.03 µg/mL | 0.5 µg/mL | < 0.001 µg/mL | 2 µg/mL | 4 µg/mL | 0.25 µg/mL |
| Clostridioides difficile PCR ribotype 014 isolate #76 (European region: West, country: France, isolate source: Human, ribotype: 014) | 2 µg/mL | 16 µg/mL | 0.06 µg/mL | < 0.03 µg/mL | 1 µg/mL | < 0.001 µg/mL | 2 µg/mL | 2 µg/mL | 0.25 µg/mL |
| Clostridioides difficile PCR ribotype 014 isolate #79 (European region: West, country: Belgium, isolate source: Human, ribotype: 014) | 2 µg/mL | 4 µg/mL | 0.008 µg/mL | 0.125 µg/mL | 0.5 µg/mL | < 0.001 µg/mL | 1 µg/mL | 2 µg/mL | < 0.125 µg/mL |
| Clostridioides difficile PCR ribotype 014 isolate #80 (European region: West, country: Belgium, isolate source: Human, ribotype: 014) | 2 µg/mL | 2 µg/mL | 0.03 µg/mL | 0.125 µg/mL | 1 µg/mL | < 0.001 µg/mL | 1 µg/mL | 2 µg/mL | < 0.125 µg/mL |

Full records from above. Order of values: minimum inhibitory concentration (linezolid) | minimum inhibitory concentration (clindamycin) | minimum inhibitory concentration (fidaxomicin) | minimum inhibitory concentration (tigecycline) | minimum inhibitory concentration (vancomycin) | minimum inhibitory concentration (rifampicin) | minimum inhibitory concentration (imipenem) | minimum inhibitory concentration (meropenem) | minimum inhibitory concentration (metronidazole)
Clostridioides difficile PCR ribotype 014 isolate #70 (European region: North, country: UK, isolate source: Human, ribotype: 014) in the list: 2 µg/mL | 16 µg/mL | 0.03 µg/mL | 0.06 µg/mL | 0.5 µg/mL | < 0.001 µg/mL | 2 µg/mL | 2 µg/mL | < 0.125 µg/mL
Clostridioides difficile PCR ribotype 014 isolate #79 (European region: West, country: Belgium, isolate source: Human, ribotype: 014) in the list: 2 µg/mL | 4 µg/mL | 0.008 µg/mL | 0.125 µg/mL | 0.5 µg/mL | < 0.001 µg/mL | 1 µg/mL | 2 µg/mL | < 0.125 µg/mL
